Test results from the supplement of paper PMC8256030.
Several values for one entry are separate records, joined by “and”; a condition that tells them apart may be missing. Equal entries are not always repeated. This is one part of the list. This data set is noisy: repeats of one test often differ as much as different tests do.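 HEK293T cells were given each compound shortly before transfection with a reporter in which red mCherry is followed by the SARS-CoV-2 frameshift element and then GFP in the −1 frame, so GFP appears only after frameshifting.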

Tests used:
[1] = system: SARS-CoV-2 -1 PRF reporter mCherry-FSE-GFP(-1); assay: mCherry (red) intensity as percent of control; higher = higher upstream reporter expression; conditions: 10 µM; 24 h; HEK293T
[2] = system: SARS-CoV-2 -1 PRF reporter mCherry-FSE-GFP(-1); assay: percent effect, decrease of GFP/mCherry ratio (-1 PRF reporter) relative to controls; higher = stronger frameshift inhibition; conditions: 10 µM; 24 h; HEK293T

SMILES | mCherry [1] | percent effect [2]
CCCNC(C)(C)COC(=O)c1ccccc1 | 91.9% | -2.28%
O=NN(CCCl)C(=O)NCCCl [carmustine] | 117% | -0.349%
CCCCC(CC)CN1CN(CC(CC)CCCC)CC(C)(N)C1 (stereo not drawn) [hexetidine] | 132% | 2.66%
O=CNc1ncc([N+](=O)[O-])s1 [forminitrazole] | 95.5% | -1.81%
CO[C@H]1/C=C/O[C@@]2(C)Oc3c(C)c(O)c4c(O)c(cc(O)c4c3C2=O)NC(=O)/C(C)=C\C=C\[C@H](C)[C@H](O)[C@@H](C)[C@@H](O)[C@@H](C)[C@H](OC(C)=O)[C@@H]1C [rifamycin] | 101% | -1.68%
C[n+]1ccccc1/C=N/O | 93.5% | -2.98%
CCN(CC)Cc1cc(Nc2ccnc3cc(Cl)ccc23)ccc1O [amodiaquine] | 145% | 0.977%
CC[C@H]1OC(=O)[C@H](C)[C@@H](O[C@H]2C[C@@](C)(OC)[C@@H](O)[C@H](C)O2)[C@H](C)[C@@H](O[C@@H]2O[C@H](C)C[C@H](N(C)C)[C@H]2O)[C@](C)(O)C[C@](C)(F)C(=O)[C@H](C)[C@@H](O)[C@]1(C)O [flurithromycin] | 120% | -7.83%
CC(=O)O[C@@]12CO[C@@H]1C[C@H](O)[C@@]1(C)C(=O)[C@H](O)C3=C(C)[C@@H](OC(=O)[C@H](O)[C@@H](NC(=O)OC(C)(C)C)c4ccccc4)C[C@@](O)([C@@H](OC(=O)c4ccccc4)[C@H]21)C3(C)C [docetaxel] | 63.8% | -1.86%
CC(=O)SCC(Cc1ccccc1)C(=O)NCC(=O)OCc1ccccc1 (stereo not drawn) [racecadotril] | 98.2% and 99.9% | -1.62% and 1.51%
Oc1c(Br)cc(Br)c2cccnc12 [broxyquinoline] | 99.6% | -1.49%
Cc1cnc(C(=O)NCCc2ccc(S(=O)(=O)NC(=O)NC3CCCCC3)cc2)cn1 [glipizide] | 79.5% and 91.2% | -3.93% and -2.07%
OC(C1=NCCN1)(c1ccc(Cl)cc1)c1ccccn1 (stereo not drawn) [dazadrol] | 71.5% | -8.4%
CC(C)=CCOc1ccc(/C=C/C(=O)c2ccc(OCC=C(C)C)cc2OCC(=O)O)cc1 [sofalcone] | 93.5% | -3.71%
NCCNCCNCCN | 127% | 0.317%
NC(=O)NC(=O)Cc1ccccc1 [phenacemide] | 79.6% | -0.352%
NC(=O)C1=C(O)[C@@]2(O)C(=O)C3=C(O)c4c(O)cccc4C[C@H]3C[C@H]2CC1=O [incyclinide] | 38% | -9.32%
CC(C)(C(=O)O)c1ccc(C(O)CCCN2CCC(C(O)(c3ccccc3)c3ccccc3)CC2)cc1 (stereo not drawn) | 86.5% | 0.212%
CN1CC2c3ccccc3Oc3ccc(Cl)cc3C2C1 (stereo not drawn) [Asenapine] | 121% | -0.0859%
O=C(O[C@@H]1C[C@@H]2C[C@H]3C[C@H](C1)N2CC3=O)c1c[nH]c2ccccc12 [dolasetron] | 96.3% | -2.32%
C[C@H](CCC(=O)NCCS(=O)(=O)O)[C@H]1CC[C@H]2[C@@H]3[C@H](O)C[C@@H]4C[C@H](O)CC[C@]4(C)[C@H]3C[C@H](O)[C@]12C [Taurocholic acid] | 88.9% | -5.18%
Cc1cccc(/C=N/N2CCN(C(c3ccccc3)c3ccccc3)CC2)n1 [ropizine] | 68.8% | -4.56%
CCCCCCCCCCCCCCCC(=O)OC[C@@H](NC(=O)C(Cl)Cl)[C@H](O)c1ccc([N+](=O)[O-])cc1 | 130% | 4.97%
O=C1NCC2(CCN(CCc3ccccc3)CC2)O1 [Fenspiride] | 93.6% | 0.212%

A second format for part of the listing above.
CC(=O)O[C@@]12CO[C@@H]1C[C@H](O)[C@@]1(C)C(=O)[C@H](O)C3=C(C)[C@@H](OC(=O)[C@H](O)[C@@H](NC(=O)OC(C)(C)C)c4ccccc4)C[C@@](O)([C@@H](OC(=O)c4ccccc4)[C@H]21)C3(C)C [docetaxel]
  mCherry [1]: 63.8%; percent effect [2]: -1.86%
CC(=O)SCC(Cc1ccccc1)C(=O)NCC(=O)OCc1ccccc1 (stereo not drawn) [racecadotril]
  mCherry [1]: 98.2% and 99.9%; percent effect [2]: -1.62% and 1.51%
